These are yes or no findings as the source states them, for the method shown. In cells and extracts the contact can be indirect. Some entries that bind do so weakly or less than the wild type. For some of these results: Where a sequence is shown, tags or fusion partners need not be part of it.
T1: TAP-Mps2 (budding yeast (SK1 background)) (UniProt P53159)
T1 sequence: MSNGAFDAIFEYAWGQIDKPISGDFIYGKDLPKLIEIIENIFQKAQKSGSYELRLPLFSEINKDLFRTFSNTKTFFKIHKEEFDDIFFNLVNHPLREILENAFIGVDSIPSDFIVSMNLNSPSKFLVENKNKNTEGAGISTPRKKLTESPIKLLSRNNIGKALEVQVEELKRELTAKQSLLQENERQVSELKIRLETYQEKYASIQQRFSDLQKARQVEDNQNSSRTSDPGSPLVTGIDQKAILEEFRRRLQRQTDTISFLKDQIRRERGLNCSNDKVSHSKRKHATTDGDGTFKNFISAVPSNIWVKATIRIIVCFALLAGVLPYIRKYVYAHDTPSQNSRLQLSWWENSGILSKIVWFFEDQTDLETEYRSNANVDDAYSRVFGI

T2: TAP-Csm4 (budding yeast (SK1 background)) (UniProt Q08955)
T2 sequence: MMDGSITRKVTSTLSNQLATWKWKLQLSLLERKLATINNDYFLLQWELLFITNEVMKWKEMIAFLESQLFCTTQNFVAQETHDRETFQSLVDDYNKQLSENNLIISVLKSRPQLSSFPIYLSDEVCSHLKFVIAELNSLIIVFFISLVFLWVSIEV

T3: TAP-Mps3 (budding yeast (SK1 background)) (UniProt P47069)
T3 sequence: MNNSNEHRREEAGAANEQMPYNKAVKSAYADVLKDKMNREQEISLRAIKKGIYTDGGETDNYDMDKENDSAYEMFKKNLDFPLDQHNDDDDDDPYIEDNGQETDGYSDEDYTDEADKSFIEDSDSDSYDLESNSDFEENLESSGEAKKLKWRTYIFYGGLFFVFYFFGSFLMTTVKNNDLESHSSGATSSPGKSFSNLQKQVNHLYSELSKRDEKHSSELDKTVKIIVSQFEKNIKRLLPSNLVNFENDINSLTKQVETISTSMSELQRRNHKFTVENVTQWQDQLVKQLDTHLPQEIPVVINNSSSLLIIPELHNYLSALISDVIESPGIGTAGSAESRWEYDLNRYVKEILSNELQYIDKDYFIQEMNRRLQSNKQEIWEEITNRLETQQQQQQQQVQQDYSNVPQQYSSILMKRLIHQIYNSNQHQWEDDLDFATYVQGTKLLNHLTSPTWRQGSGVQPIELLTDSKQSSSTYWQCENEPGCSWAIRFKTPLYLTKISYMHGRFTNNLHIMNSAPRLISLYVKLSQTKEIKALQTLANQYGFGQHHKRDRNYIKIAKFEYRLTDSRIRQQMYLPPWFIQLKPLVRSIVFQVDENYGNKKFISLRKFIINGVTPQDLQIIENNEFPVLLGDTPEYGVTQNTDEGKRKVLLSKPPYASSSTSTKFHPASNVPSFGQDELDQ

B1: V5-Csm4 (protein, UniProt Q08955 1-156)
chain: T2 sequence
B2: Mps2-3HA (protein, UniProt P53159 1-387)
chain: T1 sequence
B3: Mps3-V5 (protein, UniProt P47069 1-682)
chain: T3 sequence
B4: V5-Mps2 (protein, UniProt P53159 1-387)
chain: T1 sequence

How the values were obtained:
Assay in all cases: co-IP; reciprocal immunoprecipitation of TAP-tagged bait followed by Western blotting; yeast in synchronous meiosis arrested at prophase I by ndt80Δ
[1] = target: T1, TAP-Mps2 (budding yeast (SK1 background))
[2] = target: T2, TAP-Csm4 (budding yeast (SK1 background))
[3] = target: T3, TAP-Mps3 (budding yeast (SK1 background))

| Binder | binding [1] | also measured |
| --- | --- | --- |
| B1 | binds | – |
| B2 | – | binding [2]: binds |
| B3 | binds | – |
| B4 | – | binding [3]: binds |

From article PMC7536833
